The supplement of paper PMC11150407
In all, about 3,000 compounds went through this assay and about 45 (2%) showed an effect of 50% or more. The list shows a part of the results.

test system: MOLM1 and UCSD/AML1 (averaged); experiment: cell viability relative to DMSO control (POC); higher = less growth inhibition; conditions: 1 µM; 72 h
Description: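 Primary viability screen in the 3q26 EVI1-high AML cell lines MOLM1 and UCSD/AML1, compounds at 1 uM for 72 h. ATP CellTiter-Glo read-out given as percent viable over DMSO control (POC), averaged over duplicates. This mapping covers the TimTec NDL-3000 natural derivative library, whose compounds are identified by TimTec catalogue codes (ST...).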

SMILES	cell viability [%]
Cc1ccc(OCCn2cc(Br)c(=O)[nH]c2=O)cc1	89.3
COCCOC(=O)c1c(C)n(CCSc2ccccc2)c2c1cc(O)c1ccccc12	85.8
O=C(CCNc1ccc(F)cc1)c1cc2ccccc2oc1=O	102
Cc1cc2c(cc1S(=O)(=O)NC(Cc1c[nH]c3ccccc13)C(=O)O)NC(=O)CO2 (configuration not stated)	102
COc1ccc(/C=C/C(=O)c2cccs2)cc1	96
O=C(/C=C/c1ccccc1)c1ccc(O)c(O)c1O	82.5
COc1ccc2c(c1)c(CC(=O)NCc1ccccn1)c(C)n2C(=O)c1ccc(Cl)cc1	84.5
O=C(O)Cn1c(=O)c2c(c3ccccc31)CCC2	91.2
O=C(O)/C=C/c1cccc(NS(=O)(=O)Oc2ccc([N+](=O)[O-])cc2)c1	106
COC(=O)C1(C)CCC2(C)CCC3(C)C(=CC(=O)C4C5(C)CCC(=O)C(C)(C)C5CCC43C)C2C1 (configuration not stated)	95.7
Cc1[nH]c2ccccc2c1CCNC(=O)c1cc([N+](=O)[O-])ccc1Cl	94.4
O=C(NCc1ccccc1)c1ccc(NCCC(=O)c2cc3ccccc3oc2=O)cc1	91.9
CCOC(=O)c1ccc(O)c(OC)c1	96.1
COc1ccc(C(=O)Nc2ccc(C(=O)c3nccn3C)cc2)cc1OC	97.9
COc1cc(C(=O)N2CCOCC2)cc(OC)c1OC	98.2
CCCCC(=O)O[C@]1(C(=O)CO)[C@@H](C)C[C@H]2[C@@H]3CCC4=CC(=O)C=C[C@]4(C)[C@@]3(F)[C@@H](O)C[C@@]21C	68.6
Cc1ccc2c(CN3CCN(Cc4ccccc4F)CC3)cc(=O)oc2c1	97.1
COC(=O)c1[nH]c(=O)[nH]c(=O)c1Br	106
COc1cc(CCO)ccc1O	96.6
CCOc1ccc(CCNC(=O)c2cc3cc(OC)ccc3oc2=O)cc1OCC	107
COc1ccc(NC(=O)Cn2c(=O)cc(C(=O)N3CCCC3)c3ccccc32)cc1Cl	107

Sorted by molecular weight (descending): some entries from above.
SMILES	cell viability [%]
O=C(NCc1ccccc1)c1ccc(NCCC(=O)c2cc3ccccc3oc2=O)cc1	91.9
COc1ccc(/C=C/C(=O)c2cccs2)cc1	96
CCOC(=O)c1ccc(O)c(OC)c1	96.1

The list continues.

SMILES	cell viability [%]
CCOc1ccc(-c2oc3ccccc3c(=O)c2OS(=O)(=O)c2ccc(C)cc2)cc1	102
CC(NC(=O)Nc1ccccc1)C(=O)O (configuration not stated)	96.4
CCOC(=O)CNC(=O)c1ccc(OC)c([N+](=O)[O-])c1	95.3
CCSCCOC(=O)C1=C(C)NC2=C(C(=O)CCC2)C1c1cc(Br)c(O)c(OC)c1 (configuration not stated)	95.2
COc1cc(OC)c2c(c1)OC(c1ccc(OC)c(OC)c1)C(O)C2=O (configuration not stated)	97
N=c1oc2ccccc2cc1C(=O)Nc1cccc(Cl)c1	83.9
CNC(=O)c1cc(=O)n(CC(=O)Nc2ccc(C)cc2Cl)c2ccccc12	101
Cc1ccc(-c2cc(=O)c3cc(OCC(=O)OC(C)C)ccc3o2)cc1	106
CCOc1ccc(CCn2c(C34CC5CC(CC(C5)C3)C4)cn3c4c(=O)n(C)c(=O)n(C)c4nc23)cc1OCC	96.4
CCC(=O)Oc1c(-c2ccccc2Cl)oc2ccccc2c1=O	101
CCOC(=O)c1c(C)n(-c2ccccc2)c2cc(Br)c(OC)cc12	110
COCCOC(=O)C1=C(C)NC2=C(C(=O)CC(c3ccc(Cl)cc3)C2)C1c1ccc(O)c(OC)c1 (configuration not stated)	95.8
Nc1c(C(=O)N2CCc3ccccc3C2)sc2nc(-c3ccc4c(c3)OCO4)cc(C(F)(F)F)c12	104
CCOc1cc2c(cc1/C=C1/NC(=O)N(CC(=O)Nc3ccc(Cl)cc3)C1=O)OCO2	97.7
O=C(Cn1c(=O)cc(C(=O)N2CCCCC2)c2ccccc21)NCCc1ccccc1	99.7
COc1cc2[nH]c(=O)c(C(=O)NCc3cccnc3)c(O)c2cc1OC	98.7
Nc1c(C(=O)NCCc2c[nH]c3ccccc23)sc2nc(-c3ccccn3)ccc12	102
COc1ccc(NC(=O)C(=O)c2c[nH]c3cc(F)ccc23)cc1	95.4
COc1ccc(C[C@H](N)C(=O)O)cc1	103
COc1ccc(-c2c(-c3ccccc3)cn3ccc4cc(OC)c(OC)cc4c23)cc1OC	109
COc1ccccc1NC(=O)CSc1nc2c(=O)[nH]cnc2n1C	93.1

SMILES	cell viability [%]
Cn1c(C(=O)NCc2ccco2)c(Br)c(=O)n(C)c1=O	103
C=C(C)C1CCC2(C=O)CCC3(C)C(CCC4C5(C)CCC(=O)C(C)(C)C5CCC43C)C12 (configuration not stated)	102
O=C1CC2(CCCCC2)Oc2ccc(O)cc21	107
CCN1CCN(Cc2nc3c(c(=O)[nH]c(=O)n3C)n2Cc2c(F)cccc2Cl)CC1	98.8
O=c1c(O)c(-c2ccccc2)oc2ccccc12	95
COc1ccc2oc(C(Cl)(Cl)Cl)cc(=O)c2c1	3.78
COc1cc(O)c(C(C)=O)cc1OC	99.9
COC(=O)C1Cc2c([nH]c3ccccc23)C(c2ccccc2OC)N1 (configuration not stated)	102
COc1ccc(C2CC(=O)c3ccccc3O2)cc1OC (configuration not stated)	109
CCOC(=O)C1C(c2cc(OC)c(OC)c(OC)c2)c2cc3c(cc2OC1(C)OC)OCO3 (configuration not stated)	92
CCOC(=O)C(Cc1c[nH]c2ccccc12)NC(=O)c1ccc(C)cc1 (configuration not stated)	95.4
O=C(c1ccco1)N1CCC2(O)CCCCC2C1c1ccc(F)cc1 (configuration not stated)	90.8
COC(=O)C1=C(C)NC2=C(C(=O)CC(C)(C)C2)C1c1ccc(OC)cc1 (configuration not stated)	92
Cn1c(C(=O)N2CCOCC2)c(Br)c(=O)n(C)c1=O	102
O=C(O)c1cc(S(=O)(=O)N2CCc3ccccc3C2)cs1	100
COc1cc2[nH]c(=O)c3c(C)nc(C)c(C(=O)O)c3c2cc1OC	113
Cc1ccc(NC(=O)C(Cc2c[nH]c3ccccc23)NC(=O)OCC(C)C)cc1 (configuration not stated)	89
COc1ccc(C(=O)NCCOc2ccc(C)c(C)c2)c(OC)c1OC	95.4
Cc1cccc(C)c1NC(=O)CSc1nc2c(=O)[nH]cnc2n1C	111
CC1(C(=O)O)CCC2(C)CCC3(C)C(=CC(=O)C4C5(C)CCC(OC6OC(C(=O)O)C(O)C(O)C6OC6OC(C(=O)O)C(O)C(O)C6O)CC5CCC43C)C2C1.CC1(C(=O)O)CCC2(C)CCC3(C)C(=CC(=O)C4C5(C)CCC(OC6OC(C(=O)O)C(O)C(O)C6OC6OC(C(=O)O)C(O)C(O)C6O)CC5CCC43C)C2C1.CC1(C(=O)O)CCC2(C)CCC3(C)C(=CC(=O)C4C5(C)CCC(OC6OC(C(=O)O)C(O)C(O)C6OC6OC(C(=O)O)C(O)C(O)C6O)CC5CCC43C)C2C1.[Fe] (configuration not stated)	91.5
